Taken from: PubChem BioAssay AID1508597 (Cure First, 2020)
Shown is an unselected part of the about 2,100 reagents, in one setting of the screen. 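Calls flag viability under 80% in either arm, not effects specific to rucaparib; the reference for percent is not stated.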 Unmarked entries are inactive. Not given: the 100% reference.

- Assay: 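Knock-downs altering ovarian cancer cell survival with or without PARP inhibitor rucaparib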 (primary screen)
- Cell system: human ovarian carcinoma lines grown from tumours: OCI-P5x (papillary serous) and OCI-C5x (clear cell)
- Reagent: siRNA pool against human genes, 1.25 pmol siRNA per well
- Time to read-out: 72 h or 96 h, depending on the cell culture
- Conditions: rucaparib 20 µM (about IC30) or vehicle, present until read-out
- Rucaparib or vehicle: Vehicle
- Cell line: OCI-C5x (clear cell)
- Read-out: 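ATP luminescence measured at 72 or 96 h according to the culture, then normalised and expressed as percent viability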
- Scale: viability, normalised: higher = more viable cells remaining
- Call rule: 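Active when normalised viability falls below 80 percent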
- Calls: active = viability under 80%; inactive = viability 80% or more

| Target gene | technical replicate | viability, normalised (%) |
| --- | --- | --- |
| PRP4K (pre-mRNA processing factor kinase PRP4K) | 1 | 89.3 |
| PRP4K (pre-mRNA processing factor kinase PRP4K) | 2 | 59.1 (active) |
| PRP4K (pre-mRNA processing factor kinase PRP4K) | 3 | 58.5 (active) |
| KDM4A (lysine demethylase 4A) | 1 | 47.5 (active) |
| KDM4A (lysine demethylase 4A) | 2 | 44.9 (active) |
| KDM4A (lysine demethylase 4A) | 3 | 38.3 (active) |
| TF (transferrin) | 1 | 67.1 (active) |
| TF (transferrin) | 2 | 66.5 (active) |
| TF (transferrin) | 3 | 57.4 (active) |
| PTK2 (protein tyrosine kinase 2) | 1 | 128 |
| PTK2 (protein tyrosine kinase 2) | 2 | 104 |
| PTK2 (protein tyrosine kinase 2) | 3 | 112 |
| POLN (DNA polymerase nu) | 1 | 55.7 (active) |
| POLN (DNA polymerase nu) | 2 | 46.4 (active) |
| POLN (DNA polymerase nu) | 3 | 50.7 (active) |
| ACTB (actin beta) | 1 | 47.9 (active) |
| ACTB (actin beta) | 2 | 34.2 (active) |
| ACTB (actin beta) | 3 | 27.1 (active) |
| KAT5 (lysine acetyltransferase 5) | 1 | 60.7 (active) |
| KAT5 (lysine acetyltransferase 5) | 2 | 50.9 (active) |
| KAT5 (lysine acetyltransferase 5) | 3 | 46.9 (active) |
| ZGPAT (zinc finger CCCH-type and G-patch domain containing) | 1 | 77.6 (active) |
| ZGPAT (zinc finger CCCH-type and G-patch domain containing) | 2 | 68.3 (active) |
| ZGPAT (zinc finger CCCH-type and G-patch domain containing) | 3 | 65.4 (active) |

A portion taken from the entries so far, for reference:
| Target gene | technical replicate | viability, normalised (%) |
| --- | --- | --- |
| PRP4K (pre-mRNA processing factor kinase PRP4K) | 3 | 58.5 (active) |
| KDM4A (lysine demethylase 4A) | 1 | 47.5 (active) |
